# Data reported in the supplement of paper PMC4635364.
# Where a name gives a salt, the structure may show the parent alone. Some of the results follow. Single values are uncertain here, since repeats match poorly.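 Human fetal ventral-midbrain neural progenitor line ReNCell VM, differentiated without mitogens. Images stained for doublecortin (early neurons) or tyrosine hydroxylase (dopaminergic neurons) were scored by blinded raters against untreated wells (0 = no change). Repeats and both raters were averaged, and compounds averaging 2 or higher were picked as hits for retesting.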
# Key:
# [1] = test system: ReNCell VM; experiment: neuronal differentiation score (DCX+ cell fraction vs untreated, manual image score) (score (-3 to 3)); higher = more neuronal differentiation; settings: 2 uM, 2 weeks
# [2] = test system: ReNCell VM; experiment: dopaminergic neuron differentiation score (TH+ cell fraction vs untreated, manual image score) (score (0 to 3)); higher = more TH+ dopaminergic neuron differentiation; settings: 2 uM, 4 weeks, BDNF 10 ng/ml + GDNF 10 ng/ml
structure (smiles),measurement,setting,value
CC(=O)Nc1cc2ccccc2oc1=O,neuronal differentiation score,[1]; library: Spectrum,inactive: 0
same,dopaminergic neuron differentiation score,[2]; library: Spectrum,inactive: 0
COc1cc(/C=C/C(=O)CC(=O)/C=C/c2ccc(O)c(OC)c2)ccc1O,neuronal differentiation score,[1]; library: Spectrum,inactive: 0
same,dopaminergic neuron differentiation score,[2]; library: Spectrum,active: 3
O=C(NCCCCCCNC(=O)ON=C1CCCCC1)ON=C1CCCCC1,neuronal differentiation score,[1]; library: Tocriscreen,inactive: -1
same,dopaminergic neuron differentiation score,[2]; library: Tocriscreen,inactive: 0
C/C(=N\NC(=O)C1C(=O)NCC1c1ccccc1)c1cccc(Br)c1 (stereo unspecified),neuronal differentiation score,[1]; library: Tocriscreen,inactive: 0
same,dopaminergic neuron differentiation score,[2]; library: Tocriscreen,inactive: 0
CCN(CC)CCCC(C)Nc1nc(C)cc(Nc2ccc3nc(C)cc(N)c3c2)n1 (stereo unspecified),neuronal differentiation score,[1]; library: Tocriscreen,inactive: -3
same,dopaminergic neuron differentiation score,[2]; library: Tocriscreen,inactive: 0
Cc1ccc(Cl)c(Nc2ccccc2C(=O)O)c1Cl [Meclofenamic acid sodium salt monohydrate],neuronal differentiation score,[1]; library: Prestwick,inactive: 0
same,dopaminergic neuron differentiation score,[2]; library: Prestwick,inactive: 0
CCOC(=O)c1ccc(OC(=O)CCCCCNC(=N)N)cc1 [Gabexate mesilate],neuronal differentiation score,[1]; library: Prestwick,inactive: 0
same,dopaminergic neuron differentiation score,[2]; library: Prestwick,inactive: 0
NCCCNCCCCNCCCN,neuronal differentiation score,[1]; library: Spectrum,inactive: 0
same,dopaminergic neuron differentiation score,[2]; library: Spectrum,inactive: 0
Nc1[nH]nc2nc3ccccc3nc12,neuronal differentiation score,[1]; library: Tocriscreen,inactive: 0
same,dopaminergic neuron differentiation score,[2]; library: Tocriscreen,inactive: 0
COc1cccc2c1CCC1CC(=O)CC[C@]21C (stereo partly specified),neuronal differentiation score,[1]; library: Spectrum,inactive: 0
same,dopaminergic neuron differentiation score,[2]; library: Spectrum,inactive: 0
CN(C)CC[C@@H](c1ccc(Cl)cc1)c1ccccn1,neuronal differentiation score,[1]; library: Spectrum,inactive: 0
same,dopaminergic neuron differentiation score,[2]; library: Spectrum,inactive: 0
NCc1ccc(S(N)(=O)=O)cc1,neuronal differentiation score,[1]; library: Spectrum,inactive: 0
same,dopaminergic neuron differentiation score,[2]; library: Spectrum,inactive: 0
C[C@H]1O[C@@H](n2cc(F)c(=O)[nH]c2=O)[C@H](O)[C@@H]1O [5-fluoro-5'-deoxyuridine],neuronal differentiation score,[1]; library: LOPAC,inactive: 0
same,dopaminergic neuron differentiation score,[2]; library: LOPAC,inactive: 0
CCCC1O[C@@H]2C[C@H]3[C@@H]4CCC5=CC(=O)C=C[C@]5(C)[C@H]4[C@@H](O)C[C@]3(C)[C@]2(C(=O)CO)O1 (stereo partly specified),neuronal differentiation score,[1]; library: Spectrum,inactive: 1
same,dopaminergic neuron differentiation score,[2]; library: Spectrum,inactive: 0
CC[C@H]1OC(=O)[C@H](C)C(=O)[C@H](C)[C@@H](O[C@@H]2O[C@H](C)C[C@H](N(C)C)[C@H]2O)[C@](C)(OC)C[C@@H](C)C(=O)[C@H](C)[C@H]2N(CCCCn3cnc(-c4cccnc4)c3)C(=O)O[C@]12C,neuronal differentiation score,[1]; library: Spectrum,inactive: 0
same,dopaminergic neuron differentiation score,[2]; library: Spectrum,inactive: 0
CCC(=O)c1ccc2c(c1)N(CCCN(C)C)c1ccccc1S2 [Propionylpromazine hydrochloride],neuronal differentiation score,[1]; library: LOPAC,inactive: 0
same,dopaminergic neuron differentiation score,[2]; library: LOPAC,inactive: 0
CC1(C)[C@@H](O[C@H]2O[C@H](C(=O)O)[C@@H](O)[C@H](O)[C@H]2O[C@@H]2O[C@H](C(=O)O)[C@@H](O)[C@H](O)[C@H]2O)CC[C@]2(C)[C@H]3C(=O)C=C4[C@@H]5C[C@@](C)(C(=O)O)CC[C@]5(C)CC[C@@]4(C)[C@]3(C)CC[C@@H]12 [Glycyrrhizic acid],neuronal differentiation score,[1]; library: Phytochemical,inactive: 0
same,dopaminergic neuron differentiation score,[2]; library: Phytochemical,inactive: 0
O=c1[nH]c(=O)n([C@H]2C[C@H](O)[C@@H](CO)O2)cc1I,neuronal differentiation score,[1]; library: Spectrum,inactive: 0
same,dopaminergic neuron differentiation score,[2]; library: Spectrum,inactive: 0
CC(=O)O[C@H]1C(=O)[C@@]2(C)[C@H]([C@H](OC(=O)c3ccccc3)[C@]3(O)C[C@H](OC(=O)[C@H](O)[C@@H](NC(=O)c4ccccc4)c4ccccc4)C(C)=C1C3(C)C)[C@]1(OC(C)=O)CO[C@@H]1C[C@@H]2O,neuronal differentiation score,[1]; library: Spectrum,inactive: 0
same,dopaminergic neuron differentiation score,[2]; library: Spectrum,inactive: 0
"CCN(CC)CCOC(=O)c1cc(Cl)c(N)cc1OC [SDZ-205,557 hydrochloride]",neuronal differentiation score,[1]; library: LOPAC,inactive: 0
same,dopaminergic neuron differentiation score,[2]; library: LOPAC,inactive: 0
COc1ccc2c(c1OC)C(=O)O[C@@H]2[C@H]1c2c(cc3c(c2OC)OCO3)CCN1C [Noscapine hydrochloride],neuronal differentiation score,[1]; library: Tocriscreen,inactive: 0
same,dopaminergic neuron differentiation score,[2]; library: Tocriscreen,inactive: 0
CC(=O)C1(C)CC2(CC(C)(C)OC2=O)C(=O)O1 (stereo unspecified),neuronal differentiation score,[1]; library: Natural,inactive: 0
same,dopaminergic neuron differentiation score,[2]; library: Natural,inactive: 0
CCN(CC)c1ccc(/C=N/NC(=O)c2ccc(O)cc2)cc1,neuronal differentiation score,[1]; library: Tocriscreen,inactive: 0
same,dopaminergic neuron differentiation score,[2]; library: Tocriscreen,inactive: 0
CCOC(=O)[C@H](CCc1ccccc1)N[C@@H](C)C(=O)N1[C@H](C(=O)O)C[C@H]2CCCC[C@@H]21,neuronal differentiation score,[1]; library: Spectrum,inactive: 1
same,dopaminergic neuron differentiation score,[2]; library: Spectrum,inactive: 1
c1cc2c3c(c1)c1c(n3CCNC2)CCCC1 [WAY 629 hydrochloride],neuronal differentiation score,[1]; library: Tocriscreen,inactive: 0
same,dopaminergic neuron differentiation score,[2]; library: Tocriscreen,inactive: 0
COc1ccc(CN(CCN(C)C)c2ccccn2)cc1,neuronal differentiation score,[1]; library: Spectrum,inactive: 1
same,dopaminergic neuron differentiation score,[2]; library: Spectrum,inactive: 0
COc1cc(OC)c(C(=O)CCCN2CCCC2)c(OC)c1,neuronal differentiation score,[1]; library: Spectrum,inactive: 0
same,dopaminergic neuron differentiation score,[2]; library: Spectrum,inactive: 0
Cc1cnc(C(=O)NCCc2ccc(S(=O)(=O)NC(=O)NC3CCCCC3)cc2)cn1,neuronal differentiation score,[1]; library: Spectrum,inactive: 0
same,dopaminergic neuron differentiation score,[2]; library: Spectrum,inactive: 0

# 5 entries from above, with bars between the fields:
structure (smiles) | measurement | setting | value
NCc1ccc(S(N)(=O)=O)cc1 | dopaminergic neuron differentiation score | [2]; library: Spectrum | inactive: 0
C[C@H]1O[C@@H](n2cc(F)c(=O)[nH]c2=O)[C@H](O)[C@@H]1O [5-fluoro-5'-deoxyuridine] | neuronal differentiation score | [1]; library: LOPAC | inactive: 0
same | dopaminergic neuron differentiation score | [2]; library: LOPAC | inactive: 0
CCCC1O[C@@H]2C[C@H]3[C@@H]4CCC5=CC(=O)C=C[C@]5(C)[C@H]4[C@@H](O)C[C@]3(C)[C@]2(C(=O)CO)O1 (stereo partly specified) | neuronal differentiation score | [1]; library: Spectrum | inactive: 1
same | dopaminergic neuron differentiation score | [2]; library: Spectrum | inactive: 0
